Laboratory results as given in PubChem BioAssay AID493014 (National Center for Advancing Translational Sciences (NCATS), 2011).
This is one part of the list. Shown are side measurements of this screen, not its main read-out; they come without a call. The list favours compounds with an active or inconclusive main result. Potencies come from curve fits of mixed quality, noted in brackets.

Test: qHTS Assay to Find Inhibitors of Chronic Active B-Cell Receptor Signaling
Conditions: ABC-DLBCL IkBa-CBG/CBR reporter, luminescence ratio (green luciferase fused to IkBa over red control in TMD8 lymphoma cells), 4 h
Procedure, shortened: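 Concentration-response series (up to 46 uM) were applied to TMD8 dual-reporter cells for 4 h at 37C with doxycycline. Green/red ratio, after filter-overlap correction, defined %Activity; red signal alone was normalised to basal cells and zero luminescence.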

[1] = measured here: CBR red luminescence, cell number
[2] = measured here: IkBa-CBG green luminescence

SMILES	AC50 [1]	AC50 [2]
COc1ccc2c(CC(=O)Nc3ccc(OC)c(NS(=O)(=O)c4ccc(F)cc4)c3)coc2c1	20.6 µM [falling, single point]	
NC(=O)Nc1ccc(C(=O)OCC(=O)NC2CCCc3ccccc32)cc1 (centres undefined)	0.92 µM [rising, full curve, poor fit]	
Cc1cc(C)c(OCC(=O)N/N=C/c2ccco2)c(C)c1	25.9 µM [rising, single point]	
CCNc1nc(CN2CCOCC2)nc2sc3c(c12)CCC3	20.6 µM [rising, single point]	
O=C(c1sc2ccccc2c1Cl)N(Cc1ccccc1)C1CCS(=O)(=O)C1 (centres undefined)	0.0891 µM [rising, full curve, poor fit]	
CC(Oc1ccccc1)c1ccnn1S(C)(=O)=O (centres undefined)	20.6 µM [rising, single point]	
COc1ccc(CC(NC(C)=O)C(=O)NC2CCN(S(=O)(=O)c3ccc(NC(C)=O)cc3)CC2)cc1OC (centres undefined)	1 µM [rising, full curve, poor fit]	
O=C(NC1CCCCC1)c1ccc(N2CCCC2=O)cc1	20 µM [falling, partial curve, poor fit]	
CCOC(=O)C(=O)Nc1ccc(OC)c(Cl)c1	14.1 µM [rising, partial curve, poor fit]	
Nc1c(C(=O)Nc2ccccc2)sc2nc(-c3ccco3)ccc12	10 µM [falling, partial curve]	
CCn1cnc2cc(NC(=O)c3ccco3)ccc21	10.3 µM [falling, partial curve, poor fit]	
CCCNC(=O)CS(=O)Cc1nc(-c2ccccc2C)oc1C (centres undefined)	6.51 µM [rising, single point]	
COC(=O)[C@@H]1CCCN1C(=O)CCc1nnc(CCc2c[nH]c3ccccc23)o1	1 µM [rising, full curve, poor fit]	
Cc1ccc(OCC(=O)NC(=S)Nc2cccc(NC(=O)c3ccccc3)c2)cc1	8.2 µM [falling, partial curve, poor fit]	
O=C(Nc1ccc(Br)cn1)C1CCN(S(=O)(=O)c2cccs2)CC1	0.708 µM [rising, full curve, poor fit]	
COc1cccc(C(=O)Nc2nnc(-c3ccccc3)s2)c1	2.82 µM [falling, full curve]	
O=C(Nc1ccc(N2CCOCC2)cc1)C1CCN(S(=O)(=O)Cc2ccccc2)CC1	0.259 µM [rising, full curve, poor fit]	
O=C(Cn1c(-c2ccccc2)c[n+]2ccsc12)c1ccccc1	3.55 µM [rising, partial curve, poor fit]	
Cc1c(Cl)cccc1NC(=O)c1cc(-c2ccco2)on1	0.316 µM [falling, full curve, poor fit]	
COc1ccc2nc(NC(=O)c3cccnc3SC)sc2c1	9.2 µM [falling, partial curve, poor fit]	
COc1ccc(S(=O)(=O)N(CC(=O)NC2CCCC2)c2ccccc2OC)cc1	15.8 µM [falling, single point]	

Some of the entries so far, with each value named.
O=C(Nc1ccc(Br)cn1)C1CCN(S(=O)(=O)c2cccs2)CC1
  AC50 [1]: 0.708 µM [rising, full curve, poor fit]
COc1cccc(C(=O)Nc2nnc(-c3ccccc3)s2)c1
  AC50 [1]: 2.82 µM [falling, full curve]
O=C(Nc1ccc(N2CCOCC2)cc1)C1CCN(S(=O)(=O)Cc2ccccc2)CC1
  AC50 [1]: 0.259 µM [rising, full curve, poor fit]
O=C(Cn1c(-c2ccccc2)c[n+]2ccsc12)c1ccccc1
  AC50 [1]: 3.55 µM [rising, partial curve, poor fit]

(list continues)

SMILES	AC50 [1]	AC50 [2]
Cc1c(C(=O)Nc2ccc(-c3nnc4n3CCCCC4)cc2)oc2ccc(Br)cc12	3.66 µM [falling, partial curve, poor fit]	
O=C(OCc1cccc(F)c1)c1cc2ccccc2cc1O	11.2 µM [rising, partial curve, poor fit]	
CN1CCN(S(=O)(=O)c2cccc(C(=O)Nc3nc(-c4ccccc4)cs3)c2)CC1	2.91 µM [falling, partial curve, poor fit]	
COc1cccc(CNc2ccccc2O)c1OCc1ccccc1F	10 µM [falling, partial curve]	
CCn1nc(NS(=O)(=O)c2ccc(NC(C)=O)cc2)c2cc3ccccc3nc21	14.1 µM [falling, single point]	
CC(C)CN1C(=O)/C(=C/c2c(N3CCc4ccccc4C3)nc3ccccn3c2=O)SC1=S	12.6 µM [rising, single point]	
O=C(N/N=C/c1ccc(O)cc1O)c1ccc(CN2C(=O)c3cccc4cccc2c34)cc1	8.91 µM [falling, partial curve]	
CC(C)CN(CC(C)C)C(=O)Nc1cccc([N+](=O)[O-])c1	11.2 µM [rising, partial curve, poor fit]	
O=S(=O)(Cc1cc(Cl)nc(-c2cccnc2)n1)c1ccccc1	11.2 µM [falling, partial curve, poor fit]	
O=C(COc1ccc(S(=O)(=O)NC2CCCCC2)cc1Cl)Nc1ccc2c(c1)OCO2	29.1 µM [falling, single point]	
O=Nc1[nH]c(=O)c(/C=C(\O)c2ccccc2)nc1NO	31.6 µM [falling, single point]	
O=C(Nc1ccccc1)Nc1cc(OCC(F)(F)F)cc(OCC(F)(F)F)c1	0.082 µM [rising, full curve, poor fit]	
Cn1cccc1/C=N/NC(=O)C(O)c1ccccc1 (centres undefined)	12.6 µM [falling, partial curve]	
CC(C)c1ccc2[nH]c3nc(SCC(=O)NC4CC4)nnc3c2c1	5.62 µM [rising, partial curve, poor fit]	
Cc1cc(C)nc(SCc2nnc(SCC(=O)Nc3ccc(Cl)c(C(F)(F)F)c3)o2)n1	0.146 µM [rising, full curve, poor fit]	
COc1cccc(-c2ccc3c(N)c(C(=O)Nc4ccccc4C)sc3n2)c1	3.55 µM [falling, partial curve, poor fit]	22.4 µM [rising, partial curve, poor fit]
C/C(=N/OC(=O)CC(C)C)c1cc(-c2ccc(Cl)cc2)no1	0.126 µM [rising, full curve, poor fit]	
Cc1ccc(-c2cc3nc(C)cc(NCc4ccco4)n3n2)cc1	10 µM [falling, partial curve, poor fit]	
CCc1nnc(NS(=O)(=O)c2ccc(NC(=O)c3ccccc3C)cc2)s1	35.5 µM [falling, single point]	
O=C(NNC(=O)c1ccc(-c2ccc([N+](=O)[O-])cc2)o1)c1ccncc1	29.1 µM [rising, single point]	
COc1ccccc1CC(=O)Nc1nc(-c2ccc(F)c(F)c2)cs1	14.1 µM [falling, partial curve]	

SMILES	AC50 [1]	AC50 [2]
Cc1nc(NC(=O)c2cnccn2)ccc1Br		0.501 µM [falling, full curve, poor fit]
O=[N+]([O-])c1ccc2c(c1)nc1n2CCN(c2ccccc2)C1	11.2 µM [falling, single point]	
O=C(CNS(=O)(=O)c1ccccc1)NCC(=O)OCc1ccccc1F	10.3 µM [rising, partial curve]	
Cc1ccc(C(=O)N2CCC3(CC2)Oc2ccc(F)cc2C(=O)C32CC(c3ccccc3)=NO2)s1 (centres undefined)	12.6 µM [falling, single point]	
CCOC(=O)c1c(-c2ccccc2)oc2ccc(OCC(=O)NNC(=O)CCCC(=O)O)cc12		0.794 µM [rising, full curve, poor fit]
COCCN1C(=O)C(=O)/C(=C(/O)c2ccc(S(=O)(=O)N3CCOCC3)cc2)C1c1cccc(Cl)c1 (centres undefined)	10 µM [rising, partial curve, poor fit]	
Cc1nc2ccc([N+](=O)[O-])cc2c(=O)n1Cc1cccc(F)c1	10 µM [falling, single point]	
CCCCN(CC)CCCNC(=O)C1c2ccccc2C(=O)N(C)C1c1cn(C)c2ccccc12 (centres undefined)	16.4 µM [falling, single point]	
CCOC(=O)C1(CCCc2ccccc2)CCN(C(=O)CSC)CC1	1.12 µM [rising, full curve, poor fit]	
O=C1C2C3C=CC(C3)C2C(=O)N1c1ccc2ccccc2c1 (centres undefined)	0.447 µM [rising, full curve, poor fit]	
C=CC[C@@H](Cc1ccc(F)cc1)C(=O)OC[C@@H]1CCCN1C(=O)[C@@H](CC=C)CC(=O)N(CCO)Cc1ccccc1	18.4 µM [falling, partial curve, poor fit]	
CCOC(=O)/C(C#N)=C1/C=C(C)NC(c2ccccc2O)=N1	0.58 µM [rising, full curve]	
O=C(Cc1ccccc1)N1CCC(c2ccccc2)C1 (centres undefined)	0.398 µM [rising, full curve, poor fit]	
Cn1ccnc1SCC(=O)Nc1ccc(Oc2ccccc2)cc1	15.8 µM [falling, single point]	
COc1ccc2c(=O)c(C(=O)NCc3ccccc3)c[nH]c2c1	12.6 µM [falling, single point]	
Cc1ccc(OCC(=O)NNC(=O)c2ccccc2OCc2c(C)noc2C)cc1	23.1 µM [rising, single point]	
N#CCCN(C(=O)COC(=O)CNS(=O)(=O)c1ccc2ccccc2c1)c1ccccc1	6.51 µM [rising, full curve, poor fit]	
O=C(O)c1ccccc1NC(=O)C(Cc1ccccc1)N1C(=O)c2ccccc2C1=O (centres undefined)	10 µM [rising, partial curve, poor fit]	
COc1nc(C)ccc1-c1noc(-c2cccs2)n1	2.82 µM [rising, single point]	
CCOC(=O)c1c(C)oc2c1c(C(c1ccccc1)N1CCOCC1)c(O)c1ccccc12 (centres undefined)	5.17 µM [rising, partial curve, poor fit]	
CN(C)/C=N/C(=S)Nc1ccc(Cl)cc1	17.8 µM [rising, single point]	
